The other results are listed elsewhere or left out. These are further read-outs of the screen, such as a control signal, another cell line or another target. No call is given for them. Most of these compounds were active or inconclusive in the main read-out, so they are no random draw. Words in brackets tell the shape of the fitted curve; partial curves, single points and poor fits give uncertain potencies.
Test: qHTS Assay for Lipid Storage Modulators in Drosophila S3 Cells;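 as to cell number change: cells counted by Cell Tracker Red CMTPX staining in the red channel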
Details: BODIPY lipid droplet fluorescence, 18-24 h; for cell number change: measured here: cell count max response, cells fed with added oleic acid
Method in brief: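 Drosophila S3 cells got compounds at several concentrations plus oleic acid (400 uM solution). Laser-scanning cytometry with 488 nm excitation read lipid droplets at 500-530 nm and cells at 575-640 nm. Percent activity was relative to 20 uM Triacsin C.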

[1] = measured here: lipid fluorescence (Fed channel) AC50, cells fed with added oleic acid
[2] = measured here: cell number channel AC50, cells fed with added oleic acid

Row | Compound | cell number change | AC50 [1] | AC50 [2]
1 | COc1ccccc1CCNC(=O)C(=O)NCCC1CCCCN1S(=O)(=O)c1ccccc1 (stereo not given) | -51.7% | – | –
2 | Cc1nc2ccccc2c(=O)n1NC(=O)c1cncc(Br)c1 | – | 6.51 µM [rising, single point] | –
3 | O=C(CCNS(=O)(=O)c1cccc2nsnc12)NC1CCCc2ccccc21 (stereo not given) | 1.56% | 1.84 µM [rising, partial curve] | –
4 | CC(=O)c1cc(-c2ccccc2)n(CC(=O)N2CCC(C)CC2)c1C | -51.5% | 6.51 µM [falling, partial curve] | 9.2 µM [falling, partial curve]
5 | N#CC1=C2N=C(N)c3ccccc3N2C2=C(C(=O)CCC2)C1c1ccc(Cl)cc1 (stereo not given) | 9.71% | 2.91 µM [rising, partial curve] | –
6 | COC(=O)[C@@]12CCCCN1[C@H](c1ccc(-c3ccccc3)cc1)[C@@H]1C(=O)N(C)C(=O)[C@@H]12 | -43.6% | – | 23.1 µM [falling, single point]
7 | O=C(c1ccc(COCC(F)(F)F)o1)N1CCCCCC1 | – | 0.103 µM [falling, full curve, poor fit] | –
8 | Cc1cccc(OCC(=O)N(Cc2cccs2)C2CCS(=O)(=O)C2)c1 (stereo not given) | 21.1% | 16.4 µM [rising, single point] | –
9 | COc1ccc(CNC(=O)CN(C(=O)c2ccc(CN3CCOCC3)o2)C2CCCC2)cc1 | -27.1% | 23.1 µM [falling, single point] | –
10 | CCOC(=O)c1c(NC(=O)CSc2ncnc3ccccc23)sc(C)c1C | 1.8% | 0.651 µM [rising, partial curve, poor fit] | –
11 | CS(=O)(=O)n1nc(C(=O)N2CCOCC2)nc1N | – | 7.31 µM [falling, partial curve] | –
12 | CCOC(=O)N1CCN(C(=O)c2ccc3c(=O)n(CCC4=CCCCC4)c(=S)[nH]c3c2)CC1 | -30.3% | 0.517 µM [rising, full curve, poor fit] | –
13 | Cc1ccc(C(=O)Nc2cc(C)nn2CCC#N)cc1 | -3.91% | 0.58 µM [falling, single point] | –
14 | CN(C)c1ccc(/C=[N+](\[O-])C2N(c3ccccc3)C(=S)SC2(C)C)cc1 (stereo not given) | -2.12% | – | –
15 | Cc1ccnc(N/C=C(/NC(=O)c2ccccc2)C(=O)N/N=C\c2ccc(F)cc2)n1 | -2.42% | 13 µM [rising, single point] | –
16 | NC(=O)COC(=O)c1cc(S(=O)(=O)N2CCN(c3ccccc3)CC2)ccc1Cl | – | – | 6.51 µM [rising, single point]
17 | Cc1ccc(OCCCCn2cnc3ccccc32)cc1 | -32.6% | 13 µM [falling, partial curve] | 11.6 µM [falling, partial curve]

Part of the list above, with each value named.
COc1ccccc1CCNC(=O)C(=O)NCCC1CCCCN1S(=O)(=O)c1ccccc1 (stereo not given)
  cell number change: -51.7%
Cc1nc2ccccc2c(=O)n1NC(=O)c1cncc(Br)c1
  AC50 [1]: 6.51 µM [rising, single point]
